Measurements published in PMC4763200.
At least one result comes from cells or an extract, where the contact may be indirect. For some of these results: No signal at the amounts used counts as a negative. For at least one entry, the source does not settle the construct or the ends of the probe. For some of these results: Whether high values mean tight binding is not given here for every scale.

By UniProt entry, the sequences of proteins in these tests, tags left out.
UniProt P25490, whole entry: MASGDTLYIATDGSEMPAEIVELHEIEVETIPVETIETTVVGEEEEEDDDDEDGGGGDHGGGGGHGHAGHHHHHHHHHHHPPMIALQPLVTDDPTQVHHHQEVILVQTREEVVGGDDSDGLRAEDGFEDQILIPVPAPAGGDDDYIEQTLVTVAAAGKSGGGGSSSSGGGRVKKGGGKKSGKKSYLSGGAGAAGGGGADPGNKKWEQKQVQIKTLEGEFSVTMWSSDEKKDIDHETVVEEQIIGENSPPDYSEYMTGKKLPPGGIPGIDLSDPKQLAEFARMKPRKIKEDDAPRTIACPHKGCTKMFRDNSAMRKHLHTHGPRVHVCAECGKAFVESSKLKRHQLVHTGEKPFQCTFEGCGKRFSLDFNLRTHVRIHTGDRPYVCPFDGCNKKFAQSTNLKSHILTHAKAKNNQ
UniProt P25490, whole entry K409R: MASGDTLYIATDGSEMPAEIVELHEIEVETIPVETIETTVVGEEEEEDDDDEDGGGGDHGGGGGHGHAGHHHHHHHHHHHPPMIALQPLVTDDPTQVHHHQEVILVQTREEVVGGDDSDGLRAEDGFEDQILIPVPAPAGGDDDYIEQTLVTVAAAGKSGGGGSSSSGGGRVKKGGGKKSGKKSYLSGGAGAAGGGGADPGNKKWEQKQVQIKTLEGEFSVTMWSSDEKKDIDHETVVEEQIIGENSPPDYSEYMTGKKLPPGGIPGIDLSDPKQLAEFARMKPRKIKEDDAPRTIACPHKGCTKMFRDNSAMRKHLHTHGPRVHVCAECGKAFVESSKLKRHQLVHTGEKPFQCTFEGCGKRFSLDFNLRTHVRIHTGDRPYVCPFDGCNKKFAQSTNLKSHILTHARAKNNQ
UniProt P25490, whole entry K173R: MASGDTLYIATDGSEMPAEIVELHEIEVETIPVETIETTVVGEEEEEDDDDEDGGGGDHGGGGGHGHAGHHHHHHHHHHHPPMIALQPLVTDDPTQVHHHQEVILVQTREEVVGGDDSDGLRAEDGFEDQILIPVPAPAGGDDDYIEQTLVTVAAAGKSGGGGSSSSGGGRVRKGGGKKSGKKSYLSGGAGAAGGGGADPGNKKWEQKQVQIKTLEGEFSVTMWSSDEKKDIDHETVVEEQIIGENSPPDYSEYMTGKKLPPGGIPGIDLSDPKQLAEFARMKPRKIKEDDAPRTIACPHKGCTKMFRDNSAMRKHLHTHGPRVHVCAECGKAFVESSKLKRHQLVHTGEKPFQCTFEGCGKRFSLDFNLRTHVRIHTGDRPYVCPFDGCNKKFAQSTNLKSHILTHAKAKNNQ
UniProt P25490, whole entry K174R: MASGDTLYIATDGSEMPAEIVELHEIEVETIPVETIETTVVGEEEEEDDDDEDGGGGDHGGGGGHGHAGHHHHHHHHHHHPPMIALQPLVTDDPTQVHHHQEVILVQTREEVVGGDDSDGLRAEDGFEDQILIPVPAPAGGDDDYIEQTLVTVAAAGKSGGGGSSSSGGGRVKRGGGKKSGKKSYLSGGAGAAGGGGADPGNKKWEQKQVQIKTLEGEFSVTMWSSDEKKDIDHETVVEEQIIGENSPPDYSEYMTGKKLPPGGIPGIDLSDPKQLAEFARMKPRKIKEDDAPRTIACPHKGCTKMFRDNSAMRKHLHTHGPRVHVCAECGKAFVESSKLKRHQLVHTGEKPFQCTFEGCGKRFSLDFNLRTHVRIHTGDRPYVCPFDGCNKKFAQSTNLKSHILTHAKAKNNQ
UniProt P25490, whole entry K411R: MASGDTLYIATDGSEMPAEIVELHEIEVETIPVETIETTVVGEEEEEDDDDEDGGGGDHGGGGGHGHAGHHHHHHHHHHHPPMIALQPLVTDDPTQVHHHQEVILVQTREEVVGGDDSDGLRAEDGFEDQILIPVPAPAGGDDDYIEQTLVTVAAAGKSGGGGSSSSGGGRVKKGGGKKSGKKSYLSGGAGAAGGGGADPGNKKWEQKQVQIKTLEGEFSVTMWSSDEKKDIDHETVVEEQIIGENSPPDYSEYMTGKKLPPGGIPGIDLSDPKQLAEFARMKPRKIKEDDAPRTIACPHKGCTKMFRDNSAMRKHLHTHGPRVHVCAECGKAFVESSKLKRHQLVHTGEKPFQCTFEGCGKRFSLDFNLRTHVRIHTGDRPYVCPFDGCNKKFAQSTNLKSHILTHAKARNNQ

Experiments:
YY1 wt (Homo sapiens) [1] = target: YY1 wt (Homo sapiens) (UniProt P25490); assay: competition with a labelled probe; conditions: excess unlabeled wt oligo vs biotinylated N1; 20 ul: 1x binding buffer (10 mM Tris pH 7.5, 50 mM KCl, 1 mM DTT), 2.5% glycerol, 5 mM MgCl2, 50 ng/ul poly(dI.dC), 0.05% NP-40; protein in a lysate after overexpression; scale: remaining probe shift, fraction of lane 3
YY1 wt (Homo sapiens) [2] = target: YY1 wt (Homo sapiens) (UniProt P25490); assay: EMSA; conditions: 20 ul: 1x binding buffer (10 mM Tris pH 7.5, 50 mM KCl, 1 mM DTT), 2.5% glycerol, 5 mM MgCl2, 50 ng/ul poly(dI.dC), 0.05% NP-40; protein in a lysate after overexpression; label: 5' biotin on both strands
YY1 K409R (Homo sapiens) = YY1 K409R (Homo sapiens) (UniProt P25490); assay: EMSA; conditions: 20 ul: 1x binding buffer (10 mM Tris pH 7.5, 50 mM KCl, 1 mM DTT), 2.5% glycerol, 5 mM MgCl2, 50 ng/ul poly(dI.dC), 0.05% NP-40; protein in a lysate after overexpression; residues 1-414; protein details: Flag; label: 5' biotin on both strands
YY1 K173R (Homo sapiens) = YY1 K173R (Homo sapiens) (UniProt P25490); assay: EMSA; conditions: 20 ul: 1x binding buffer (10 mM Tris pH 7.5, 50 mM KCl, 1 mM DTT), 2.5% glycerol, 5 mM MgCl2, 50 ng/ul poly(dI.dC), 0.05% NP-40; protein in a lysate after overexpression; residues 1-414; protein details: Flag; label: 5' biotin on both strands
YY1 K174R (Homo sapiens) = YY1 K174R (Homo sapiens) (UniProt P25490); assay: EMSA; conditions: 20 ul: 1x binding buffer (10 mM Tris pH 7.5, 50 mM KCl, 1 mM DTT), 2.5% glycerol, 5 mM MgCl2, 50 ng/ul poly(dI.dC), 0.05% NP-40; protein in a lysate after overexpression; residues 1-414; protein details: Flag; label: 5' biotin on both strands
YY1 K411R (Homo sapiens) = YY1 K411R (Homo sapiens) (UniProt P25490); assay: EMSA; conditions: 20 ul: 1x binding buffer (10 mM Tris pH 7.5, 50 mM KCl, 1 mM DTT), 2.5% glycerol, 5 mM MgCl2, 50 ng/ul poly(dI.dC), 0.05% NP-40; protein in a lysate after overexpression; residues 1-414; protein details: Flag; label: 5' biotin on both strands

With “CGCTCCCCGGCCATCTTGGCGGCTGGT (double strand) [YY1 consensus site (wt), unlabeled competitor]” the binding signal (YY1 wt (Homo sapiens) [1]) was 0.15.

In the case of “CGCTCCCCGGCCATCTTGGCGGCTGGT (double strand) [YY1 consensus site (wt), biotinylated]”, the binding signal (fraction of YY1 wt (lane 3)) (YY1 wt (Homo sapiens) [2]) is reported as 1, the binding signal (fraction of YY1 wt (lane 3)) (YY1 K409R (Homo sapiens)) is reported as 0.85 and the binding signal (fraction of YY1 wt (lane 3)) (YY1 K173R (Homo sapiens)) is reported as 0.62. The binding signal (fraction of YY1 wt (lane 3)) (YY1 K174R (Homo sapiens)) was 0.94 and the binding signal (fraction of YY1 wt (lane 3)) (YY1 K411R (Homo sapiens)) was 0.2.

“CGCTCCGCGATTATCTTGGCGGCTGGT (double strand) [YY1 mutant site (m), biotinylated]”: no binding (YY1 wt (Homo sapiens) [2]).
